According to the supplement of paper PMC8728848:
This is one part of the list.

Assays:
Experiment in all cases: glycan array binding signal (z-score within array); higher = stronger binding
Conditions in all cases: glycan notation: IUPAC condensed, linker removed
[1] = biological target: Fuc(a1-2)[Gal(a1-3)]Gal(b1-4)GlcNAc(b1-2)Man(a1-3)[Fuc(a1-2)[Gal(a1-3)]Gal(b1-4)GlcNAc(b1-2)Man(a1-6)]Man(b1-4)GlcNAc(b1-4)[Fuc(a1-6)]GlcNAc
Outline: (§1)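 The Consortium for Functional Glycomics database supplied 3228 glycan arrays, of which those lacking an available protein sequence were dropped. The binding signal, a within-array Z-score, was averaged across arrays of the same protein sequence and across linkers. Negative scores can be read as non-binding.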

[2] = biological target: Fuc(a1-2)[Gal(a1-3)]Gal(b1-4)GlcNAc(b1-3)GalNAc
Outline: as §1

[3] = biological target: Fuc(a1-2)[Gal(a1-3)]Gal(b1-4)GlcNAc(b1-3)[Fuc(a1-2)[Gal(a1-3)]Gal(b1-4)GlcNAc(b1-6)]GalNAc
Outline: as §1

[4] = biological target: Fuc(a1-2)[Gal(a1-3)]Gal(b1-4)GlcNAc(b1-6)GalNAc
Outline: as §1

[5] = biological target: Fuc(a1-2)[Gal(a1-3)]Gal(b1-4)[Fuc(a1-3)]Glc
Outline: as §1

[6] = biological target: Fuc(a1-2)[Gal(a1-3)]Gal(b1-4)[Fuc(a1-3)]GlcNAc
Outline: as §1

[7] = biological target: Fuc(a1-2)[Gal(a1-3)]Gal(b1-4)[Fuc(a1-3)]GlcNAc(b1-3)GalNAc
Outline: as §1

[8] = biological target: Fuc(a1-2)[Gal(a1-4)]Gal(b1-4)GlcNAc
Outline: as §1

[9] = biological target: Fuc(a1-2)[GalNAc(a1-3)]Gal
Outline: as §1

[10] = biological target: Fuc(a1-2)[GalNAc(a1-3)]Gal(b1-3)GalNAc(a1-3)[Fuc(a1-2)]Gal(b1-4)GlcNAc
Outline: as §1

[11] = biological target: Fuc(a1-2)[GalNAc(a1-3)]Gal(b1-3)GalNAc(b1-3)Gal(a1-4)Gal(b1-4)Glc
Outline: as §1

[12] = biological target: Fuc(a1-2)[GalNAc(a1-3)]Gal(b1-3)GlcNAc
Outline: as §1

[13] = biological target: Fuc(a1-2)[GalNAc(a1-3)]Gal(b1-3)GlcNAc(b1-2)Man(a1-3)[Fuc(a1-2)[GalNAc(a1-3)]Gal(b1-3)GlcNAc(b1-2)Man(a1-6)]Man(b1-4)GlcNAc(b1-4)GlcNAc
Outline: as §1

[14] = biological target: Fuc(a1-2)[GalNAc(a1-3)]Gal(b1-3)GlcNAc(b1-2)Man(a1-3)[Fuc(a1-2)[GalNAc(a1-3)]Gal(b1-3)GlcNAc(b1-2)Man(a1-6)]Man(b1-4)GlcNAc(b1-4)[Fuc(a1-6)]GlcNAc
Outline: as §1

[15] = biological target: Fuc(a1-2)[GalNAc(a1-3)]Gal(b1-3)GlcNAc(b1-3)GalNAc
Outline: as §1

[16] = biological target: Fuc(a1-2)[GalNAc(a1-3)]Gal(b1-3)GlcNAc(b1-6)GalNAc
Outline: as §1

[17] = biological target: Fuc(a1-2)[GalNAc(a1-3)]Gal(b1-4)Glc
Outline: as §1

[18] = biological target: Fuc(a1-2)[GalNAc(a1-3)]Gal(b1-4)GlcNAc
Outline: as §1

[19] = biological target: Fuc(a1-2)[GalNAc(a1-3)]Gal(b1-4)GlcNAc(b1-2)Man
Outline: as §1

[20] = biological target: Fuc(a1-2)[GalNAc(a1-3)]Gal(b1-4)GlcNAc(b1-2)Man(a1-3)[Fuc(a1-2)[GalNAc(a1-3)]Gal(b1-4)GlcNAc(b1-2)Man(a1-6)]Man(b1-4)GlcNAc(b1-4)GlcNAc
Outline: as §1

[21] = biological target: Fuc(a1-2)[GalNAc(a1-3)]Gal(b1-4)GlcNAc(b1-2)Man(a1-3)[Fuc(a1-2)[GalNAc(a1-3)]Gal(b1-4)GlcNAc(b1-2)Man(a1-6)]Man(b1-4)GlcNAc(b1-4)[Fuc(a1-6)]GlcNAc
Outline: as §1

[22] = biological target: Fuc(a1-2)[GalNAc(a1-3)]Gal(b1-4)GlcNAc(b1-3)Gal(b1-4)GlcNAc
Outline: as §1

[23] = biological target: Fuc(a1-2)[GalNAc(a1-3)]Gal(b1-4)GlcNAc(b1-3)Gal(b1-4)GlcNAc(b1-3)Gal(b1-4)GlcNAc
Outline: as §1

[24] = biological target: Fuc(a1-2)[GalNAc(a1-3)]Gal(b1-4)GlcNAc(b1-3)GalNAc
Outline: as §1

[25] = biological target: Fuc(a1-2)[GalNAc(a1-3)]Gal(b1-4)GlcNAc(b1-3)[Fuc(a1-2)[GalNAc(a1-3)]Gal(b1-4)GlcNAc(b1-6)]GalNAc
Outline: as §1

[26] = biological target: Fuc(a1-2)[GalNAc(a1-3)]Gal(b1-4)GlcNAc(b1-6)GalNAc
Outline: as §1

[27] = biological target: Fuc(a1-2)[GalNAc(a1-3)]Gal(b1-4)[Fuc(a1-3)]GlcNAc
Outline: as §1

[28] = biological target: Fuc(a1-2)[GalNAc(a1-3)]Gal(b1-4)[Fuc(a1-3)]GlcNAc(b1-3)GalNAc
Outline: as §1

[29] = biological target: Fuc(a1-2)[GalNAc(a1-4)]Gal(b1-4)GlcNAc
Outline: as §1

[30] = biological target: Fuc(a1-2)[GalNAc(b1-3)]Gal
Outline: as §1

Fuc(a1-3)GlcNAc = biological target: Fuc(a1-3)GlcNAc
Outline: as §1

[31] = biological target: Fuc(a1-3)[Gal(b1-4)]Glc6S
Outline: as §1

[32] = biological target: Fuc(a1-3)[Gal(b1-4)]GlcNAc
Outline: as §1

[33] = biological target: Fuc(a1-3)[Gal(b1-4)]GlcNAc(b1-2)Man
Outline: as §1

[34] = biological target: Fuc(a1-3)[Gal(b1-4)]GlcNAc(b1-2)Man(a1-3)[Fuc(a1-3)[Gal(b1-4)]GlcNAc(b1-2)Man(a1-6)]Man(b1-4)GlcNAc(b1-4)GlcNAc
Outline: as §1

[35] = biological target: Fuc(a1-3)[Gal(b1-4)]GlcNAc(b1-2)Man(a1-3)[Fuc(a1-3)[Gal(b1-4)]GlcNAc(b1-2)Man(a1-6)]Man(b1-4)GlcNAc(b1-4)[Fuc(a1-6)]GlcNAc
Outline: as §1

[36] = biological target: Fuc(a1-3)[Gal(b1-4)]GlcNAc(b1-3)Gal(b1-3)[Fuc(a1-4)]GlcNAc
Outline: as §1

[37] = biological target: Fuc(a1-3)[Gal(b1-4)]GlcNAc(b1-3)Gal(b1-4)[Fuc(a1-3)]GlcNAc
Outline: as §1

[38] = biological target: Fuc(a1-3)[Gal(b1-4)]GlcNAc(b1-3)Gal(b1-4)[Fuc(a1-3)]GlcNAc(b1-3)Gal(b1-4)[Fuc(a1-3)]GlcNAc
Outline: as §1

[39] = biological target: Fuc(a1-3)[Gal(b1-4)]GlcNAc(b1-3)GalNAc
Outline: as §1

[40] = biological target: Fuc(a1-3)[Gal(b1-4)]GlcNAc(b1-6)GalNAc
Outline: as §1

[41] = biological target: Fuc(a1-3)[Gal(b1-4)]GlcNAc(b1-6)[Gal(b1-3)GlcNAc(b1-3)]Gal(b1-4)Glc
Outline: as §1

[42] = biological target: Fuc(a1-3)[Gal(b1-4)]GlcNAc6S
Outline: as §1

[43] = biological target: Fuc(a1-3)[Gal3S(b1-4)]Glc
Outline: as §1

[44] = biological target: Fuc(a1-3)[Gal3S(b1-4)]GlcNAc
Outline: as §1

B1: Aap arpt (Staphylococcus epidermidis) (protein)
chain: NNEAPQMSSTLQAEEGSNAEAPQSEPTKAEEGGNAEAAQSEPTKAEEGGNAEAPQSEPTKAEEGGNAEAAQSEPTKTEEGSNVKAAQSEPTKAEEGSNAEAPQSEPTKTEEGSNAKAAQSEPTKAEEGGNAEAAQSEPTKTEEGSNAEAPQSEPTKAEEGGYAEAPQSEPTKTEEGGNAEAPNVPTIKA
glycan array binding signal (z-score) [1]: 0.149 | glycan array binding signal (z-score) [2]: 0.911 | glycan array binding signal (z-score) [3]: 1.58 | glycan array binding signal (z-score) [4]: -0.475 | glycan array binding signal (z-score) [5]: -0.463 | glycan array binding signal (z-score) [6]: -0.571 | glycan array binding signal (z-score) [7]: 0.442 | glycan array binding signal (z-score) [8]: -0.791 | glycan array binding signal (z-score) [9]: -0.531 | glycan array binding signal (z-score) [10]: -0.523 | glycan array binding signal (z-score) [11]: -0.952 | glycan array binding signal (z-score) [12]: -1.15 | glycan array binding signal (z-score) [13]: -0.928 | glycan array binding signal (z-score) [14]: -0.31 | glycan array binding signal (z-score) [15]: -0.103 | glycan array binding signal (z-score) [16]: -0.564 | glycan array binding signal (z-score) [17]: 0.147 | glycan array binding signal (z-score) [18]: -2.25 | glycan array binding signal (z-score) [19]: 1.48 | glycan array binding signal (z-score) [20]: 0.528 | glycan array binding signal (z-score) [21]: -0.621 | glycan array binding signal (z-score) [22]: -0.914 | glycan array binding signal (z-score) [23]: -0.239 | glycan array binding signal (z-score) [24]: -0.617 | glycan array binding signal (z-score) [25]: -0.684 | glycan array binding signal (z-score) [26]: 0.358 | glycan array binding signal (z-score) [27]: 0.454 | glycan array binding signal (z-score) [28]: 1.69 | glycan array binding signal (z-score) [29]: -0.286 | glycan array binding signal (z-score) [30]: -0.168 | glycan array binding signal (z-score) (Fuc(a1-3)GlcNAc): -0.294 | glycan array binding signal (z-score) [31]: -0.246 | glycan array binding signal (z-score) [32]: -0.92 | glycan array binding signal (z-score) [33]: -0.688 | glycan array binding signal (z-score) [34]: -1.43 | glycan array binding signal (z-score) [35]: 0.767 | glycan array binding signal (z-score) [36]: 0.763 | glycan array binding signal (z-score) [37]: 1.48 | glycan array binding signal (z-score) [38]: 0.278 | glycan array binding signal (z-score) [39]: -0.131 | glycan array binding signal (z-score) [40]: 0.096 | glycan array binding signal (z-score) [41]: -0.249 | glycan array binding signal (z-score) [42]: -0.319 | glycan array binding signal (z-score) [43]: -0.238 | glycan array binding signal (z-score) [44]: 0.27
